For assay [1], the target named is T1, RAS Protein Activator Like 3 (RASAL3) (human (endogenous in MM cell lines ARP1, CAG)) (UniProt Q86YV0).
T1 sequence: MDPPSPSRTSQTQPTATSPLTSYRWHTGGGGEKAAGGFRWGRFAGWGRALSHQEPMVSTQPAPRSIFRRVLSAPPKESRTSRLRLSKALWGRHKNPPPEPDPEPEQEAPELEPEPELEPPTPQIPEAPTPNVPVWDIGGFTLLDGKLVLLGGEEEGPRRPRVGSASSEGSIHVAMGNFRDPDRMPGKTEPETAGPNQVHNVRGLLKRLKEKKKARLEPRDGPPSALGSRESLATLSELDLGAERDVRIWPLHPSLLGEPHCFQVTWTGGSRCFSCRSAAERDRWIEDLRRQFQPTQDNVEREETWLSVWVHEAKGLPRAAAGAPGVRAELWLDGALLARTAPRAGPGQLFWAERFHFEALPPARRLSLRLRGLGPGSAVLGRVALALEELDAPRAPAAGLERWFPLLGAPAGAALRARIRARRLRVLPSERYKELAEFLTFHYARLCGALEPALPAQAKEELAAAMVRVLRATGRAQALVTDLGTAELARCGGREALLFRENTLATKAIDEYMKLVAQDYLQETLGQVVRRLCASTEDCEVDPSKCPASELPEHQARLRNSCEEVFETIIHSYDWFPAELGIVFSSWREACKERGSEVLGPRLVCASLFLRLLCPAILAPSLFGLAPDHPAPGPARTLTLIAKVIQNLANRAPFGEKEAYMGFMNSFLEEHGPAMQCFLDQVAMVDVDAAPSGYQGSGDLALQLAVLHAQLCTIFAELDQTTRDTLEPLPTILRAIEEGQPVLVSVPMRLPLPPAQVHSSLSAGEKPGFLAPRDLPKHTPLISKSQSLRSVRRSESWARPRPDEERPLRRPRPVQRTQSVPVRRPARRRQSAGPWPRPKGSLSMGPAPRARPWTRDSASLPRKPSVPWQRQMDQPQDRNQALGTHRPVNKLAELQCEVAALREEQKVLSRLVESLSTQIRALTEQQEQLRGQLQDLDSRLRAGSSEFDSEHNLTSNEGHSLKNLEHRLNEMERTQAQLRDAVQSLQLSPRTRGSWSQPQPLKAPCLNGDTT
In words: co-IP; Pierce Direct Magnetic IP/Co-IP kit; IP with FLAG antibody (for FLAG-CD229) or with RASAL3 antibody from CD229-OE MM cells, IgG as negative control, Western blot; also after Dasatinib treatment of the cells (interaction called impaired / reduced).

For assay [2], the target named is T2, CD229 (signaling lymphocytic activation molecule family 3), FLAG-tagged, overexpressed in MM cells (human) (UniProt Q9HBG7).
T2 sequence: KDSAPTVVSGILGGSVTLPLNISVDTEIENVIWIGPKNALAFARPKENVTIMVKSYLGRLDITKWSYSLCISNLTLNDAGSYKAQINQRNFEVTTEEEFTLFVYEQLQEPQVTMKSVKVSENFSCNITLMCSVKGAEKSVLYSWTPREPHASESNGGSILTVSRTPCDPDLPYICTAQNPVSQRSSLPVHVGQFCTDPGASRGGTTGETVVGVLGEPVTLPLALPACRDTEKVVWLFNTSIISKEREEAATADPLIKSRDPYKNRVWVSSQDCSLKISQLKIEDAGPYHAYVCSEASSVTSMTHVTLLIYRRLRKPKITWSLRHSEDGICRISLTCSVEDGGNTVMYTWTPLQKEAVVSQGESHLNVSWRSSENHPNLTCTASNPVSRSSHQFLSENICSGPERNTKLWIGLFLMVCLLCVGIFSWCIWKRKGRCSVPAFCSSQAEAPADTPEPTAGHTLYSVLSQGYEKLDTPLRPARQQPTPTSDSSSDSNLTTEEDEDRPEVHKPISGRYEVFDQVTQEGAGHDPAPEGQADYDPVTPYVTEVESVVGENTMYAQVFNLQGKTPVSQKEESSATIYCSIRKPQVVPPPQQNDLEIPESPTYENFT
The description is as above.

Results are given in words; binding and its absence hold for the method and conditions named. Binding seen in cells or lysates may run through a third protein. Some results given as binding are weak or reduced against the parent protein; the word gives no strength. Where a sequence is shown, tags or fusion partners need not be part of it.

B1: CD229 (signaling lymphocytic activation molecule family 3), FLAG-tagged, overexpressed in MM cells (receptor, UniProt Q9HBG7 48-655)
chain: T2 sequence
Consider B1, for which the binding result in assay [1] is given as “binds”.

B2: RAS Protein Activator Like 3 (RASAL3) (protein, UniProt Q86YV0 1-1011)
chain: T1 sequence
B2: the binding entry in assay [2] is given as “binds”.

For the origin of these results see article PMC9740379.
